# Library screening results

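Viability assay of Plasmodium falciparum sporozoites; the read-out is not stated. The concentration is filed as 10 mM, unlikely as a test dose, so the dose is not known. The record gives no direction; compounds that gave an IC50 in retests scored well above the rest, so higher reads as lower viability. Strong results were mostly tested again. Of about 34,000 compounds tested this way, about 280 (0.84%) reached 50% or more in at least one test.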

The filed quantity is “Percent Effect” (%).
The record does not define 0% and 100%; most values in the screen are far below 50% and negative numbers occur (in some assays of this library far below -100).
Compounds were drawn at random from those tested, without regard to their results.
Two or more numbers in one place are separate tests of the same structure; such repeats can differ widely.

structure,Percent Effect
CC(=O)N1Cc2ccccc2CC1C(=O)Nc1cc(C)ccn1 (centres unmarked),71.78% & 85.23%
CC(C)(C)c1cn2nc(N3CCCC3Cn3cncn3)sc2n1 (centres unmarked),-5.183% & 4.187% & 0.2303%
COc1ccc(C2Nc3ccccc3C3=NCCCN32)cc1OC (centres unmarked),-9.804%
Cc1nn(C)c(C)c1C1CCCN1C(=O)CCNc1ncccn1 (centres unmarked),5.623%
CCOc1ccc(C#N)cc1NCC(=O)NC(=O)Nc1ccccc1,-20.07%
CN(C)c1cccc(C(=O)N2CCCSCC2CN2CCCC2)c1 (centres unmarked),1.88%
CCN1CCC(c2nnc(CN3CCCC3)n2C2CC2)CC1,0.5917%
COCCOCCCNC(=O)c1cc(Cl)cc2cccnc12,4.269%
O=C(O)C(F)(F)F.O=C(O)C(F)(F)F.[H][C@@]12COC[C@]1([H])[C@H](OCc1ccccn1)CN2Cc1ccc(F)cc1,14.34%
CCc1nc(CN(C(C)=O)C2CCN(Cc3ccccc3F)C2)no1 (centres unmarked),12.26%
COc1ccccc1-n1nc(-c2ccco2)n(CC(=O)NC2CC2)c1=O,-8.769%
O=C1NCCN1C1CCN(Cc2coc(-c3ccc(F)cc3)n2)CC1,-2.659%
CCCC(O)CN1CC(C)(C)CN(C(=O)c2ccc(SC)cc2)CC1=O (centres unmarked),11.96%
O=C(O)C(F)(F)F.O=S(=O)(c1cccs1)N1CCCn2nnc(CN3CCCCC3)c2C1,-8.766%
CC(O)CN1CCC(CNCc2cccc(Cl)c2)CC1 (centres unmarked),1.03%
[H][C@@]12C[C@@H](C(=O)NC)N(C(C)=O)[C@]1([H])CN(Cc1ccc(C)o1)C2,-9.625%
NC(=O)C1CN(C(=O)Cc2cccnc2)CCN(C2CCOCC2)C1 (centres unmarked),4.064%
O=C(NCc1csc2ccc(Cl)cc12)c1cc2n(n1)CCNC2,-4.297%
COCc1cccc(NC(C)C(=O)N(C)Cc2ccccc2)c1 (centres unmarked),-5.306%
O=C1CCSCC(C(=O)N2CCOCC2)N1 (centres unmarked),11.69%
O=C(O)C(F)(F)F.O=C(O)C(F)(F)F.[H][C@@]12CN(Cc3scnc3C)C[C@H](C(=O)NCCOC)[C@]1([H])CCO2,-0.4677%
NC(=O)c1cc(C2CCCN(CCOc3cccc(F)c3)C2)n[nH]1 (centres unmarked),6.024%
Cc1c(NC(C)C(C)C)cccc1C(=O)NCc1nccn1C (centres unmarked),-16.91%
CCc1cnc(COc2ccc(OC3CCCCNC3=O)cc2)o1 (centres unmarked),-31.83% & -45%
O=C(O)C(F)(F)F.[H][C@@]12COC[C@]1(CN(C)C)CN(C(=O)Cc1ccccc1C)C2,2.433%
NCC1CCCCN1Cc1cc(O)c2cccc(F)c2n1 (centres unmarked),-33.29% & -23.5%
COCC1CN(S(=O)(=O)c2cccs2)Cc2ncnn2C1 (centres unmarked),-0.08518%
[H][C@@]12COC[C@@H](C(=O)N3CCCO3)[C@]1([H])CN(Cc1c(C)noc1C)C2,4.381%
CCOC(=O)[C@H]1[C@@H](O)C(=O)N(C)C12CCN(C(=O)OC)CC2,10.43%
CCc1nnc(C(C)N2CCCN(C(=O)Oc3ccccc3)CC2)o1 (centres unmarked),4.622%
CCCn1cnnc1CNC1CCSC1 (centres unmarked),-19.82%
CCC(O)CN1CCN(C(=O)c2cc3ccccc3n2CC)CC1 (centres unmarked),9.581%
Cc1nn(C)cc1C1=NS(=O)(=O)N(C)C(C(=O)Nc2ccc(Cl)cc2)=C1,10.61%
CCn1cc(-c2cc(C(F)(F)F)n(CCCN)n2)cn1,3.923%
O=C(c1ccc2c(c1)CCC2)N1CCCCC1C1OCCO1 (centres unmarked),-13.03%
Cc1cccc(N2CCN(C(=O)CCc3ccsc3)C(C)C2)n1 (centres unmarked),-7.175%
Cc1nn(C)c(N2CCOCC2)c1CNC1COc2ccccc2C1 (centres unmarked),-456.6%
Cc1cc(C(F)(F)F)c2c(C3CCN(S(=O)(=O)N(C)C)CC3)noc2n1,-9.834%
CSc1ccccc1NC(=O)CCN1CCC(C(=O)N(C)C)CC1,6.036%
OC(COCc1cccs1)CN1CCc2c(ncn2C2CC2)C1 (centres unmarked),7.427%
CCC(Nc1cccc(Oc2ccccn2)c1)C(N)=O (centres unmarked),-13.24%
CCOc1ccc2[nH]c(=O)c(CN3CCCCC3C)cc2c1 (centres unmarked),-7.389% & -20.04%
[H][C@@]12CS(=O)(=O)C[C@]1([H])N(Cc1ccc(C#N)cc1)CCN2C(=O)C1CCC1,1.963%
CC(C)CN1CC(O)CN(S(=O)(=O)c2ccccc2)CC1=O (centres unmarked),-24.52%
Cc1cc(CN2CCc3nc(-c4ccncc4)nc(O)c3CC2)c(C)s1,16.11%
Cc1ncc(CN2CCCC(c3nc4ccccc4n3C(C)C)C2)s1 (centres unmarked),3.826%
COc1cc(CN[C@@H]2COC[C@H]2Cc2cc(C)no2)cc(OC)c1.O=C(O)CC(O)(CC(=O)O)C(=O)O,-6.114% & -9.196% & -22.82%
[H][C@@]12CCCO[C@]1([H])[C@H](NC(=O)C1CC1)CN2Cc1ccsc1,-5.736%
CCCn1nc2c(cc1=O)CN(CC(=O)Nc1nnc(C)s1)CC2,-10.49%
CC(C)Oc1ccc(CNC(=O)NCC(C)(C)C(N)=O)cc1F,-18.14%
O=C1CCc2cc(C(=O)NCc3ccc(-n4cncn4)nc3)ccc2N1,-1.12%
c1ccc(CCNc2ncnc3c2CCN(Cc2c[nH]cn2)CC3)cc1,-14.98%
CCCc1nc(C)c(C(=O)NCC2CCN(C3CC3)C2)s1 (centres unmarked),0.8881%

5 of the entries, repeated:

| structure | Percent Effect |
|---|---|
| `Cc1cc(C(F)(F)F)c2c(C3CCN(S(=O)(=O)N(C)C)CC3)noc2n1` | -9.834% |
| `O=C(c1ccc2c(c1)CCC2)N1CCCCC1C1OCCO1` (centres unmarked) | -13.03% |
| `O=C1CCc2cc(C(=O)NCc3ccc(-n4cncn4)nc3)ccc2N1` | -1.12% |
| `CCOc1ccc(C#N)cc1NCC(=O)NC(=O)Nc1ccccc1` | -20.07% |
| `[H][C@@]12COC[C@@H](C(=O)N3CCCO3)[C@]1([H])CN(Cc1c(C)noc1C)C2` | 4.381% |

Measurements from “University of Dundee, Small-Polar-MMV Screening Library” (2021), ChEMBL document CHEMBL3988442.